Results published in PubChem BioAssay AID2685 (National Center for Advancing Translational Sciences (NCATS), 2010).
The other results are listed elsewhere or left out. These are further read-outs of the screen, such as a control signal, another cell line or another target. No call is given for them. The list favours compounds with an active or inconclusive main result. The note in brackets gives the kind of curve behind each potency; many fits are weak.

Assay: qHTS Assay for Lipid Storage Modulators in Drosophila S3 Cells;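 as to cell number change: cells counted by Cell Tracker Red CMTPX staining in the red channel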
Conditions: BODIPY lipid droplet fluorescence, 18-24 h; for cell number change: measured here: cell count max response, cells fed with added oleic acid
Method in brief: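 Drosophila S3 cells got compounds at several concentrations plus oleic acid (400 uM solution). Laser-scanning cytometry with 488 nm excitation read lipid droplets at 500-530 nm and cells at 575-640 nm. Percent activity was relative to 20 uM Triacsin C.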

[1] = measured here: cell number channel AC50, cells fed with added oleic acid
[2] = measured here: lipid fluorescence (Fed channel) AC50, cells fed with added oleic acid

Molecule `COC1CCN(C(=O)C2CCC(=O)N(C3CCCCCC3)C2)CC1` (stereo not given) has a cell number change of 0.85%.
For `O=C(CSc1nc(C(F)(F)F)cc(=O)[nH]1)Nc1nccs1`, the cell number change was -5.39%.
In the case of `COc1ccc(OCC(=O)Nc2cc3c(cc2C(=O)O)OCCCO3)cc1`, the cell number change is reported as 35.7% and the AC50 [1] is reported as 29.1 µM [rising, single point].
For `CC(c1ccccc1)C(CC(=O)O)C(=O)Nc1ccc(Cl)c(Cl)c1` (stereo not given), the cell number change was -2.55%.
For `O=C(Nc1cccc(-c2nc3cccnc3s2)c1)c1ccc(Cl)nc1`, the cell number change was 8.57% and the AC50 [2] was 0.731 µM [rising, full curve].
With `COc1cc(C(=O)OCCCN=C2NS(=O)(=O)c3ccccc32)cc(OC)c1OC` the cell number change was -9.64% and the AC50 [2] was 0.146 µM [rising, full curve, poor fit].
With `Cc1cc(C)c2nc(-c3ccco3)cc(C(=O)O)c2c1` the cell number change was 17.5% and the AC50 [2] was 18.4 µM [rising, single point].
In the case of `CCOc1cc(/C=N\NC(=O)Cc2ccccc2)ccc1OCC(=O)Nc1ccc(C)c(C)c1`, the cell number change is reported as -26%, the AC50 [1] is reported as 0.58 µM [rising, full curve] and the AC50 [2] is reported as 1.3 µM [rising, full curve].
For `Cc1cc(OCC(=O)Nc2ccc(N3CCCC3)cc2)cc(C)c1Cl`, the cell number change was 82.1%, the AC50 [1] was 29.1 µM [rising, single point] and the AC50 [2] was 6.51 µM [falling, single point].
For `C=CCN(c1cccc(C(F)(F)F)c1)S(=O)(=O)c1cccc(C(=O)OCC(=O)Nc2ccccc2)c1`, the cell number change was 58% and the AC50 [1] was 29.1 µM [rising, single point].
For `O=S(=O)(NCCSc1ccccn1)c1ccc(Cl)cc1`, the cell number change was 35.2%, the AC50 [1] was 29.1 µM [rising, single point] and the AC50 [2] was 0.184 µM [falling, full curve, poor fit].
With `CCOC(=O)N1CCN(C(=O)C2CCN(S(=O)(=O)c3c(C)cc(C)cc3C)CC2)CC1` the cell number change was -17.4%, the AC50 [1] was 0.092 µM [falling, full curve, poor fit] and the AC50 [2] was 1.64 µM [falling, partial curve].
For `O=C(Nc1ccc2ccccc2c1)Nc1ccc2snnc2c1`, the cell number change was -49.4%, the AC50 [1] was 3.66 µM [falling, full curve] and the AC50 [2] was 18.4 µM [falling, partial curve].
With `O=c1[nH]c(SCc2nc3ccccc3c(=O)n2-c2ccccc2C(F)(F)F)nc2ccccc12` the cell number change was 1.43% and the AC50 [2] was 29.1 µM [rising, single point].
With `Cc1ccc(C)c(N2CCN(C(=O)CCS(=O)(=O)c3cccc4nonc34)CC2)c1` the AC50 [2] was 0.146 µM [rising, full curve, poor fit].
In the case of `Cc1ccc(NS(=O)(=O)c2cccc(C(=O)N3CCCC(C)C3)c2)cc1` (stereo not given), the cell number change is reported as -9.5% and the AC50 [2] is reported as 23.1 µM [falling, partial curve, poor fit].
With `COCCCn1c(SCc2nc3ccccc3c(=O)[nH]2)nc2ccccc2c1=O` the cell number change was 48.7%, the AC50 [1] was 0.651 µM [rising, full curve] and the AC50 [2] was 2.59 µM [rising, full curve].
Molecule `CC(C)(C)NC(=O)C1CC(=O)OC1(C)C` (stereo not given) has a cell number change of -17.5%.
For `COC(=O)c1sc(-c2ccc(Cl)cc2)cc1NC(=O)/C=C/C(=O)O`, the cell number change was 6.63% and the AC50 [1] was 2.06 µM [rising, single point].
In the case of `O=C(O)COC(=O)Cc1ccccc1Nc1c(Cl)cccc1Cl`, the cell number change is reported as 1.45%.
With `CCOC(=O)c1c(C)[nH]c(NC(=O)NNC(=O)c2ccccc2Cl)c1C` the cell number change was 4.1% and the AC50 [2] was 0.259 µM [rising, full curve, poor fit].
With `Cc1cccc(C(=O)c2cccc(C)c2)c1` the cell number change was -24.1%, the AC50 [1] was 2.59 µM [falling, partial curve, poor fit] and the AC50 [2] was 0.58 µM [falling, full curve, poor fit].
With `O=c1c2c(nc3nc(NCc4cccc5ccccc45)[nH]n13)CCC2` the cell number change was 14.5%.
For `O=C1/C(=C\c2cc([N+](=O)[O-])ccc2O)SC(=S)N1Cc1ccc(Cl)cc1`, the cell number change was -105%, the AC50 [1] was 5.17 µM [falling, full curve] and the AC50 [2] was 3.66 µM [falling, full curve].
For `CC(C)OC(=O)c1nnc(Cc2ccc(F)cc2)o1`, the AC50 [2] was 20.6 µM [rising, single point].
With `Cc1ccc(S(=O)(=O)N2CCN(C(=O)COC(=O)CSc3ccc(C)c(C)c3)CC2)c(C)c1` the cell number change was -7.63%.
In the case of `O=C(O)CSc1ncnc2nc[nH]c12`, the AC50 [2] is reported as 23.1 µM [falling, single point].
In the case of `S=C(NCCCCNC(=S)NCc1ccccc1)NCc1ccccc1`, the cell number change is reported as 31.7% and the AC50 [1] is reported as 29.1 µM [rising, single point].
In the case of `CCN1C(=O)c2cccc3c(S(=O)(=O)NCc4cccnc4)ccc1c23`, the cell number change is reported as 35.6%, the AC50 [1] is reported as 2.31 µM [rising, full curve, poor fit] and the AC50 [2] is reported as 4.11 µM [rising, single point].
With `COC(=O)CNC(=O)c1cc(-c2ccncc2)nc2ccccc12` the AC50 [2] was 0.58 µM [rising, single point].
For `O=S(=O)(Nc1cccc2ncccc12)c1cccs1`, the AC50 [1] was 6.51 µM [rising, single point] and the AC50 [2] was 3.26 µM [rising, partial curve].
For `Cc1ccc(-c2cc(C(=O)NCc3ccccn3)c3ccccc3n2)cc1`, the cell number change was 72%, the AC50 [1] was 4.61 µM [rising, full curve] and the AC50 [2] was 0.116 µM [falling, full curve, poor fit].
In the case of `COc1ccccc1CCNC(=O)CCn1c(=O)c2cccn2c2ccc(F)cc21`, the cell number change is reported as -27.7% and the AC50 [2] is reported as 6.51 µM [rising, single point].
In the case of `C=CCNC(=O)c1ccc(Cn2cc(C(F)(F)F)ccc2=O)cc1`, the cell number change is reported as -12.5% and the AC50 [2] is reported as 1.16 µM [falling, single point].
For `C/C(=N\N=C(N)N)c1cccc(Cl)c1`, the cell number change was 135% and the AC50 [1] was 29.1 µM [rising, single point].
In the case of `CSc1ccc(Cl)c(C(=O)NCCCn2ccnc2)c1`, the cell number change is reported as 31.6%, the AC50 [1] is reported as 23.1 µM [rising, partial curve] and the AC50 [2] is reported as 29.1 µM [rising, single point].
For `Cc1c(C)c2ccc(OCC(=O)NCc3ccccn3)cc2oc1=O`, the cell number change was 23% and the AC50 [2] was 32.6 µM [falling, single point].
With `O=C(OCc1ccc(COC(=O)c2ccc(O)cc2)cc1)c1ccc(O)cc1` the AC50 [2] was 0.651 µM [rising, single point].
For `Nc1cccc(C(=O)OCC(=O)Nc2cccc3c2C(=O)c2ccccc2C3=O)c1`, the cell number change was -64.7%, the AC50 [1] was 9.2 µM [falling, partial curve] and the AC50 [2] was 18.4 µM [falling, partial curve, poor fit].
In the case of `Cc1ccc(NC(=O)CN2C(=O)NC3(CCCC3)C2=O)cc1S(=O)(=O)N1CCCCC1`, the cell number change is reported as 32.5% and the AC50 [1] is reported as 11.6 µM [rising, single point].
For `C/C(=N\NC(=O)c1ccco1)c1cc2ccccc2o1`, the cell number change was 0.549% and the AC50 [2] was 3.66 µM [falling, single point].
For `COc1ccc(C2N3CC4(C)CN2CC(C)(C3)C4=O)cc1OC` (stereo not given), the cell number change was 4.05% and the AC50 [2] was 0.00461 µM [falling, full curve, poor fit].
With `CC(=O)C1=C(O)C(=O)N(C)C1c1ccccc1F` (stereo not given) the cell number change was -10.9% and the AC50 [2] was 4.11 µM [falling, full curve, poor fit].
For `O=c1[nH]c(NNC(=S)NCc2ccccc2)nc2c1C1(CCCCC1)Cc1ccccc1-2`, the cell number change was -27% and the AC50 [2] was 23.1 µM [falling, single point].
In the case of `CCOC(=O)c1sc2cc([N+](=O)[O-])cc(SCC(=O)OC)c2c1N`, the AC50 [2] is reported as 0.58 µM [rising, single point].
In the case of `O=C(NC1CCCC1)c1cc2nc(-c3ccccc3)cc(-c3ccccc3)n2n1`, the cell number change is reported as 11% and the AC50 [2] is reported as 20.6 µM [rising, single point].
For `O=C(NCC1CCCO1)c1cncc(Br)c1` (stereo not given), the cell number change was -11.2% and the AC50 [2] was 18.4 µM [falling, single point].
With `CCOc1ccc(NC(=O)COC(=O)C2(C)CC2(Cl)Cl)c([N+](=O)[O-])c1` (stereo not given) the AC50 [1] was 6.51 µM [rising, single point].
With `CCC(C)c1ccccc1N1CC(C(=O)Nc2ccccc2N2CCCC2)CC1=O` (stereo not given) the cell number change was 18.2% and the AC50 [2] was 11.2 µM [rising, partial curve, poor fit].
With `COc1cccc(C(=O)NC2CCCc3c2cnn3-c2cc(C)cc(C)c2)c1` (stereo not given) the cell number change was -35.4%, the AC50 [1] was 0.184 µM [falling, full curve] and the AC50 [2] was 0.082 µM [falling, full curve].
With `O=C(Nn1cnnc1)c1ccccc1-c1ccccc1` the cell number change was -32%, the AC50 [1] was 0.259 µM [falling, full curve, poor fit] and the AC50 [2] was 0.206 µM [falling, full curve].
`Cc1onc(-c2c(F)cccc2Cl)c1C(=O)OCC(=O)NC(c1ccccc1)c1ccccc1` gave a cell number change of 23.4%.
For `O=C(Nc1ccccc1)OCCN1CCN(Cc2ccccc2)CCC1=O`, the cell number change was 6.34% and the AC50 [2] was 14.6 µM [rising, partial curve, poor fit].
With `Cc1cccn2c(=O)c3cc(C(=O)N4CCCC(C)C4)sc3nc12` (stereo not given) the AC50 [2] was 6.51 µM [rising, partial curve].
For `O=C(CCNC(=O)c1ccc([N+](=O)[O-])cc1)NCc1ccco1`, the cell number change was 6.55%, the AC50 [1] was 0.116 µM [falling, full curve, poor fit] and the AC50 [2] was 0.13 µM [falling, full curve, poor fit].
In the case of `Cc1nccn1CCC(=O)O`, the cell number change is reported as 2.13% and the AC50 [2] is reported as 18.4 µM [falling, single point].
With `COc1ccc(C(=O)Nc2cccc(-c3csc(C)n3)c2)cc1S(=O)(=O)N1CCCC1` the cell number change was 12.9% and the AC50 [2] was 9.2 µM [falling, partial curve, poor fit].
For `CN(CC(=O)Nc1cccc(F)c1)C(=O)C1CSC2(C)CCC(=O)N12` (stereo not given), the cell number change was -50% and the AC50 [1] was 29.1 µM [falling, single point].
